According to the supplement of paper PMC11006884:
Most of the targets with a hit are listed elsewhere, so they are rarer here than in the full data. Single values of this set are uncertain. The list shows a part of the results, in another mix than the full data.

Protein sequences, listed by entry. Tags and fused reporters are not part of them. Lines headed by an entry give the natural chain unless they say otherwise; changes in a name come on top.
UniProt P78347: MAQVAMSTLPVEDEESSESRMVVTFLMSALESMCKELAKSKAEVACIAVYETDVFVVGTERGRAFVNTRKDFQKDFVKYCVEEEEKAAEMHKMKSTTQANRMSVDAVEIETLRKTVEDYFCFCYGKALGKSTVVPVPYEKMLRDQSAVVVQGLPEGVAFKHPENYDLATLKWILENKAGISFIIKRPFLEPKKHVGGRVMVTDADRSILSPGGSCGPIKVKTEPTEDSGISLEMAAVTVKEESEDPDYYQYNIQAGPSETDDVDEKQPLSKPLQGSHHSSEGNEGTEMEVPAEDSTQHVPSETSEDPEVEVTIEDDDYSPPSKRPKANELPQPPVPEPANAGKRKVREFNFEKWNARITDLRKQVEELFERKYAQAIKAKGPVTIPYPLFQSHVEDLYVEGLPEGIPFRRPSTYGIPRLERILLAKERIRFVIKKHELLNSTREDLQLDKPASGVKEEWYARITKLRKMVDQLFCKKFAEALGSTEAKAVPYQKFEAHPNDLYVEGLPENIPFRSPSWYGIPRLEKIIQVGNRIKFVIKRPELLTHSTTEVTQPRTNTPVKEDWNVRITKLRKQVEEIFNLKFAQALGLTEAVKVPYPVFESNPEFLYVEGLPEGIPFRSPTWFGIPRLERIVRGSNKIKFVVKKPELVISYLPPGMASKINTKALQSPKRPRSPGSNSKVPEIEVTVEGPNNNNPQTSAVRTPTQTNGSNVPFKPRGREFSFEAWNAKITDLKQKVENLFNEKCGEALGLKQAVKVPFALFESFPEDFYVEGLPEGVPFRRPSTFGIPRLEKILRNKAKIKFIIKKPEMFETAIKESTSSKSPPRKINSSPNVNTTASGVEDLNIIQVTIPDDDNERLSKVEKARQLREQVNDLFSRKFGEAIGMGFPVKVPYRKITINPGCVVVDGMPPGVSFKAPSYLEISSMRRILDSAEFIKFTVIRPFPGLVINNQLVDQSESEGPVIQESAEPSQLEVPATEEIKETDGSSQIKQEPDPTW
UniProt Q00577: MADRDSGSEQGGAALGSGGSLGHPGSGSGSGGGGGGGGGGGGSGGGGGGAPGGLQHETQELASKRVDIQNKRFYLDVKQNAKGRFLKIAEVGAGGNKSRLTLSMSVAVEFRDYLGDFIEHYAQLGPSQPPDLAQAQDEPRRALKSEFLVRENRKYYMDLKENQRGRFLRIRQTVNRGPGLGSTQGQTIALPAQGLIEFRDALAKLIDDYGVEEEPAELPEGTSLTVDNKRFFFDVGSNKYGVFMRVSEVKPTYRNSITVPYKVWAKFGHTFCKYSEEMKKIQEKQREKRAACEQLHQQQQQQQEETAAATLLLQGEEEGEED
UniProt P78527, whole entry, looked up: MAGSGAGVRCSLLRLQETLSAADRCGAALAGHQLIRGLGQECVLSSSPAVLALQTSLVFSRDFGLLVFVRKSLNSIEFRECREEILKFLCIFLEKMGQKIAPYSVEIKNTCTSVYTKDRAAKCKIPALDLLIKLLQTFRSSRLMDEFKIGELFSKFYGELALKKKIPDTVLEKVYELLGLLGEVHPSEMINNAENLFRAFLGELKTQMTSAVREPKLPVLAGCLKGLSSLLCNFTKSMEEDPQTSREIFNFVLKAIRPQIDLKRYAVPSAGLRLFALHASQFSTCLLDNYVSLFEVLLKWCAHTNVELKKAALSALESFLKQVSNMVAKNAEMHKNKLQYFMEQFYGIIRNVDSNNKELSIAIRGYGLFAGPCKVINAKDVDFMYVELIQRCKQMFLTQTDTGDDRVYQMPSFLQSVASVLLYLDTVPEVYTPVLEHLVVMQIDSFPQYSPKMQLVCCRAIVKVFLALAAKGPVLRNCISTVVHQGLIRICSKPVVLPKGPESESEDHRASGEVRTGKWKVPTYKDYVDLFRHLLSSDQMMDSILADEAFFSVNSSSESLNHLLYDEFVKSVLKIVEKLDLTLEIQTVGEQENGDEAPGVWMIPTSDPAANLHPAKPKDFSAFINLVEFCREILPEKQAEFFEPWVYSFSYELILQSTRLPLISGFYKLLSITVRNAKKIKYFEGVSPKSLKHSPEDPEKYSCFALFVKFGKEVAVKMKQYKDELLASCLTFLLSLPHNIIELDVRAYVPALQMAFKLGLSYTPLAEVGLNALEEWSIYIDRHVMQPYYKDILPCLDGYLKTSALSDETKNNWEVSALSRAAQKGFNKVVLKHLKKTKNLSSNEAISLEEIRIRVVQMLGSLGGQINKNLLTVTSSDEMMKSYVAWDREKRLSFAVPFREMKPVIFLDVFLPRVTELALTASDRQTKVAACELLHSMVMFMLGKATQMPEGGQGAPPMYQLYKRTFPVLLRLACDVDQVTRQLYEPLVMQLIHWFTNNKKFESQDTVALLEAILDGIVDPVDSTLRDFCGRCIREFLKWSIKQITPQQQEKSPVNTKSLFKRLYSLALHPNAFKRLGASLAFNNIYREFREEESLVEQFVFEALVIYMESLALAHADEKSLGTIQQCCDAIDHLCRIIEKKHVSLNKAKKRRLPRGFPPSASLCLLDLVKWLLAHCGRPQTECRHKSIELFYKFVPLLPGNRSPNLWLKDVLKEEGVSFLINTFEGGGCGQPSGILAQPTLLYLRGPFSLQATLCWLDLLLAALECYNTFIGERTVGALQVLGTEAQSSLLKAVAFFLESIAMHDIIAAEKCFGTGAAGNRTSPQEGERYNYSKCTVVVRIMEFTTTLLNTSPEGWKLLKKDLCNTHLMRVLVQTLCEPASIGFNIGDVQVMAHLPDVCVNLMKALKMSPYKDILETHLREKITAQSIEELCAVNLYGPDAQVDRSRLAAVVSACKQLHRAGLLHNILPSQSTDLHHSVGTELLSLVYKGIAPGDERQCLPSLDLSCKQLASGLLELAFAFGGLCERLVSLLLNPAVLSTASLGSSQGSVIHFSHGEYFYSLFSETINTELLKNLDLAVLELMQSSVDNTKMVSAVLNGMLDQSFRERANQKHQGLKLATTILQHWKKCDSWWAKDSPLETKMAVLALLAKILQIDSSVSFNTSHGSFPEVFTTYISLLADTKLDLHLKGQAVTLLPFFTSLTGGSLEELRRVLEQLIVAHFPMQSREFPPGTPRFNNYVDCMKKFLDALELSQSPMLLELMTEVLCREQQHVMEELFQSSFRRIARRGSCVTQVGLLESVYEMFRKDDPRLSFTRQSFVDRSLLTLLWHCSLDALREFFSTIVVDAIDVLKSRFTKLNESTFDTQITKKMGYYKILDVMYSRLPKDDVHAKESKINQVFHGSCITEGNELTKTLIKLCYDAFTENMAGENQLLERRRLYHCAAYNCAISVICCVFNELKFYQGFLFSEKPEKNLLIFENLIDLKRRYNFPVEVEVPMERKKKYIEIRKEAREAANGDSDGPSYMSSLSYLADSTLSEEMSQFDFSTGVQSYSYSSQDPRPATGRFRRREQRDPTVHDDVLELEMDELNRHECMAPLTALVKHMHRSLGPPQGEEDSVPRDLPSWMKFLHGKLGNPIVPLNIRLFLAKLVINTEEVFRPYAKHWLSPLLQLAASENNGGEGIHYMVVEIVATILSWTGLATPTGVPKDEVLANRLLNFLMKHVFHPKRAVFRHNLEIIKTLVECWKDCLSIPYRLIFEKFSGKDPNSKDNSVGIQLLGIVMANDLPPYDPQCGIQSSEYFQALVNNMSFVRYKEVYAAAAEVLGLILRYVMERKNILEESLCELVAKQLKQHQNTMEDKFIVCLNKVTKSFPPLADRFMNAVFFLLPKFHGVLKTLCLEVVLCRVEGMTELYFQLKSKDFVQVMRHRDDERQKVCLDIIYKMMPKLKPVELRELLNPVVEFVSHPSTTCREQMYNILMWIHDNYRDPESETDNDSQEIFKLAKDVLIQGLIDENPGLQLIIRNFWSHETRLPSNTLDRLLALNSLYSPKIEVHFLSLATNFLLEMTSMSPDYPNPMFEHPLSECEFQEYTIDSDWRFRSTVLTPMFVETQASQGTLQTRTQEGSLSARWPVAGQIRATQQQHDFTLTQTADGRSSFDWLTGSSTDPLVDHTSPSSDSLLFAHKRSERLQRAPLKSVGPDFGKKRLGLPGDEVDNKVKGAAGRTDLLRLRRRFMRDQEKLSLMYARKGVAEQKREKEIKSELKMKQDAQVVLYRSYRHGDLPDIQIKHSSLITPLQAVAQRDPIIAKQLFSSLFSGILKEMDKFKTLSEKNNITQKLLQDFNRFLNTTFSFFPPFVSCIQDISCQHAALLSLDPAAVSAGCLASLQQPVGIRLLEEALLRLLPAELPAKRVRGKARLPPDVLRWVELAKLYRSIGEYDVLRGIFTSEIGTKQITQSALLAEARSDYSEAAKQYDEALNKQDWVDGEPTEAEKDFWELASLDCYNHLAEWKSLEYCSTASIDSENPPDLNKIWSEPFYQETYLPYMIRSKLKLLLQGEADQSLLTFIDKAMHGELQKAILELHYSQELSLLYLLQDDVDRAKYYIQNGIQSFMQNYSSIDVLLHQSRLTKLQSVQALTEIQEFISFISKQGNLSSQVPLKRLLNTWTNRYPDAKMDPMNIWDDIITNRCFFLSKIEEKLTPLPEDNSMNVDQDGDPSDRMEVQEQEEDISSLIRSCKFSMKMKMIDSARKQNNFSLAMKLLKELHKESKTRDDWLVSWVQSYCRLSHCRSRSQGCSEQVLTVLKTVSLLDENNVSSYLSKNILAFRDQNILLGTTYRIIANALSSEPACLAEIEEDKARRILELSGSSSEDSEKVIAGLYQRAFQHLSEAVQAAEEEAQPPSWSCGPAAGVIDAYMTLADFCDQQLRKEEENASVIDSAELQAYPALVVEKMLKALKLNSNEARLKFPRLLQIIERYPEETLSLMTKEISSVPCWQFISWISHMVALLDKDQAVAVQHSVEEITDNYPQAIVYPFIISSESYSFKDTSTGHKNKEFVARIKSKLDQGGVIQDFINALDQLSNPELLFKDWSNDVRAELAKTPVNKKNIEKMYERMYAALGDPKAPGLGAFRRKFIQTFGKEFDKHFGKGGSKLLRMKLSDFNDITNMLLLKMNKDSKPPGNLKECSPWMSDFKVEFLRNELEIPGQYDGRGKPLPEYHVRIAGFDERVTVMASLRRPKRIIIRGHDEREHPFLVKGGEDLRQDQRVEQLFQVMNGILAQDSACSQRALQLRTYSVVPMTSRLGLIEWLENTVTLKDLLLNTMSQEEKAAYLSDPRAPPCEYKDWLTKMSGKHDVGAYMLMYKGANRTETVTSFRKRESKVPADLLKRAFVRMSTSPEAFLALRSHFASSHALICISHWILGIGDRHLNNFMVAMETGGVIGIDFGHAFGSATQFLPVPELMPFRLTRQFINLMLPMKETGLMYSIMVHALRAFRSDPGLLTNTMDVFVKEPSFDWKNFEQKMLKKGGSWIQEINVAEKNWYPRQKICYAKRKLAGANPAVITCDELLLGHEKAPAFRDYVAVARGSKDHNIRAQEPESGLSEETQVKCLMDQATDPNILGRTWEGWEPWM
UniProt P62330: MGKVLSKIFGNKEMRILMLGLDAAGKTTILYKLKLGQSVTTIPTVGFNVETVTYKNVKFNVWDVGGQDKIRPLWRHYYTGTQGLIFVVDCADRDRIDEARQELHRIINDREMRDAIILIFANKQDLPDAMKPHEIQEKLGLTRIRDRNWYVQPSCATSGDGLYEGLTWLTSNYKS
UniProt Q00653: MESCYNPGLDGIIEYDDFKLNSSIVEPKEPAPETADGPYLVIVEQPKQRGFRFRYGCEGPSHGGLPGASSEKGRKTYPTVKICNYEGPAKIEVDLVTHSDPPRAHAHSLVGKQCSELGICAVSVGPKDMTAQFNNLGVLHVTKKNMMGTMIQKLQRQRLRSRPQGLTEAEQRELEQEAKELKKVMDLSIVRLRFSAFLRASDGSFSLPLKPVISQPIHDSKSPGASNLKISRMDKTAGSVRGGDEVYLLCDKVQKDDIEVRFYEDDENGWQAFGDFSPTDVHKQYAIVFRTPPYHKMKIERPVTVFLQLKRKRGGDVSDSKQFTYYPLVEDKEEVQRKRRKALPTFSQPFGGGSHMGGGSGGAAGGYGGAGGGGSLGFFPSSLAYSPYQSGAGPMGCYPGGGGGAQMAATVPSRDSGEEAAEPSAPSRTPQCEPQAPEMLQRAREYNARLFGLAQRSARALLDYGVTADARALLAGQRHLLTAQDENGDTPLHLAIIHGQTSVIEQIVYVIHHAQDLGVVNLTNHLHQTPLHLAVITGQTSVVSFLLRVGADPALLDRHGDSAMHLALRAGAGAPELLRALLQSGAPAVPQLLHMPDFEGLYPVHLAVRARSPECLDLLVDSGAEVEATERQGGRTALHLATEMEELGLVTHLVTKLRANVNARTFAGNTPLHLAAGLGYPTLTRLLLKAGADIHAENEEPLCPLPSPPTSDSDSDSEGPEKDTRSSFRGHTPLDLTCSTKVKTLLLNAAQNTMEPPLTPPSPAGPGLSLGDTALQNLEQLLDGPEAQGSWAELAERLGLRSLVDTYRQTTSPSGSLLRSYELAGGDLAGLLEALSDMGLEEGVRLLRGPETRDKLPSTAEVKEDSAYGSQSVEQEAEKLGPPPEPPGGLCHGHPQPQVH

Compound: COC(=O)/C=C/c1ccccc1 [methyl cinnamate]
Test: log2 ratio of iodoacetamide-alkyne labeling of the cysteine site, DMSO over compound (competition); higher = stronger covalent engagement of the cysteine by the compound, active = 1 or more
Details: 500 µM; treatment time 1 h; system: HEK293T cell lysate
In short: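 HEK293T lysate (2 mg/mL) was incubated with electrophile (500 µM) or vehicle for 1 h at ambient temperature and then with iodoacetamide alkyne for 1 h. Labelled proteins were clicked to sCIP-TMT reagents, pooled, digested, enriched on streptavidin and measured by Orbitrap Eclipse LC-MS/MS with FAIMS, with FragPipe quantification. The per-cysteine log2 competition ratio is mean control-channel reporter intensity over mean compound-channel reporter intensity. Across three replicates with duplicate channels, cysteines quantified in only one replicate were excluded.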

log2 ratio of iodoacetamide-alkyne labeling, inactive:
EXOSC10 C73 (UniProt Q01780) 0.132
CCT2 C289 (UniProt P78371) 0.311
UniProt P98164_C4047 0.0445
GTF2I C215 (UniProt P78347) 0.138
SPTBN1 C112 (UniProt Q01082) 0.0432
PFKP C179 (UniProt Q01813) -0.105
PURA C272 (UniProt Q00577) 0.32
UniProt P62857_C27 0.426
PPIA C62 (UniProt P62937) 0.112
UniProt P78527_C1455 0.104
UniProt P68363_C295 0.199
UniProt P62330_C155 -0.0716
SPTBN1 C624 (UniProt Q01082) 0.129
NFKB2 C57 (UniProt Q00653) 0.184

Quoted from the results shown for reference:
log2 ratio of iodoacetamide-alkyne labeling, inactive:
UniProt P68363_C295 0.199
UniProt P62330_C155 -0.0716
